Measured values taken from PMC5435683, “Crystal structure of TAZ-TEAD complex reveals a distinct interaction mode from that of YAP-TEAD complex” (Scientific Reports, 2017).
Results are given in words; binding and its absence hold for the method and conditions named. Some entries that bind do so weakly or less than the wild type.

By UniProt entry, the sequences of proteins in these tests, tags left out. Where a name states a change or a piece, a line headed by the entry shows the natural chain unless it says otherwise. Chains listed by the source or under a name are the forms on record and can include a tag or linker. Residues count along the entry.
mTEAD4 (residues 210-427) (Q62296, residues 210-427): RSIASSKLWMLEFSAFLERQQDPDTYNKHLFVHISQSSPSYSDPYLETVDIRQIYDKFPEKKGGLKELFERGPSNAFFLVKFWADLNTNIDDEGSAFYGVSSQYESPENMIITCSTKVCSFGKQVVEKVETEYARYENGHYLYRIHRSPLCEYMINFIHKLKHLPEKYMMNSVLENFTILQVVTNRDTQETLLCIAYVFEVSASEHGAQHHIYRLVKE
mTEAD4 (residues 210-427) Cys360Ser (Q62296, form named): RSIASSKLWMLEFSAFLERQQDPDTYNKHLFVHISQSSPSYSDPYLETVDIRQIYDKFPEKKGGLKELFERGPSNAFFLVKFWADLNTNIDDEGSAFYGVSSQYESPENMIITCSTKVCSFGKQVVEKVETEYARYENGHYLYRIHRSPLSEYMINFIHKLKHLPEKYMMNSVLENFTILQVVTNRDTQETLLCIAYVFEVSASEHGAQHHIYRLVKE

B1: mTAZ (residues 25-57) (domain or fragment, mouse, UniProt Q9EPK5 25-57, looked up)
chain: DTDLEALFNSVMNPKPSSWRKKILPESFFKEPD
notes: TAZ (WWTR1), mouse, residues 25-57 (helix α1, 13-residue loop, helix α2); Cloned with mTEAD4 in a modified pETDuet-1 vector; also called mouse TAZ; not shown: His6, N-terminal, cleaved
B2: mTAZ (residues 25-57) Asn33Cys (domain or fragment, mouse, UniProt Q9EPK5 25-57, looked up)
chain: DTDLEALFCSVMNPKPSSWRKKILPESFFKEPD
notes: TAZ (WWTR1), mouse, residues 25-57, Asn33 replaced with cysteine for disulfide cross-linking; In the cross-linked sample Cys33 of two copies is joined by a disulfide (copper phenanthroline); in the control and DTT samples it is not; also called TAZ Asn33Cys; source: E. coli BL21 (DE3), co-expressed with mTEAD4 (210-427) Cys360Ser, purified as a complex as the wild type; not shown: His6, …

Tests used:
[1] = target: mTEAD4 (residues 210-427) (mouse) (UniProt Q62296); test: crystal structure; mTAZ (25-57) with mTEAD4 (210-427), co-expressed and co-purified; hanging drops, 6% PEG 10000, 0.05 M magnesium acetate, 0.1 M tri-sodium citrate pH 5.2, 20 °C; 2.9 Å; 4 TAZ and 4 TEAD in the asymmetric unit, two binding modes (1:1 and 2:2); both purified
[2] = target: T1, mTEAD4 (residues 210-427) Cys360Ser (mouse, UniProt Q62296 210-427, Cys360 replaced with serine); test: SEC-MALS; control without cross-linking; Superdex 75 5/150 GL, 20 mM Tris pH 8, 150 mM sodium chloride, 25 ul of 6 mg/ml; both purified
T1 construct: TEAD4, mouse, residues 210-427, surface-exposed Cys360 replaced with serine; also called TEAD Cys360 to serine; source: E. coli BL21 (DE3), co-expressed with mTAZ (25-57) Asn33Cys, purified as a complex as the wild type

[3] = target: T1, mTEAD4 (residues 210-427) Cys360Ser; test: cross-linking + SEC-MALS; specific disulfide cross-linking of TAZ Asn33Cys with 1.5 mM CuCl2 and 5 mM phenanthroline, 1 hour at 25 °C, stopped with 50 mM EDTA; Superdex 75 5/150 GL, 20 mM Tris pH 8, 150 mM sodium chloride; both purified

Binder	binding [1]	binding [2]	binding [3]
B1	binds	–	–
B2	–	binds	binds
